According to patent US20100041972A1, “APPARATUS AND METHODS” (priority 2006, published 2010):
For at least one compound, name, drawing or mass did not settle the structure.

What was measured:
bladder muscle = assay: MEA recording of spontaneous muscle contraction of bladder muscle; assay type: cell-based, Wistar rats or mice
[1] = test system: neuronal activity in smooth muscle; assay: MEA recording of neuronal activity in smooth muscle; assay type: cell-based, Wistar rats or mice; settings: changed from 12.5 μM to 50 μM nifedipine from 1500 to 2000s

| SMILES | spontaneous contraction activity (number of contractions in five minutes) (bladder muscle; acetylcholine 100 μM, bladder sheet, 35° C.) | electrical (neuronal) activity across the MEA, ratemeter [1] | phasic activity (number of contractions in five minutes) (bladder muscle; nifedipine added last, at 37° C., concentration not given) |
| --- | --- | --- | --- |
| CC(=O)OCC[N+](C)(C)C [acetylcholine] | caused an increase in activity | – | – |
| COC(=O)C1=C(C)NC(C)=C(C(=O)OC)C1c1ccccc1[N+](=O)[O-] [nifedipine] | – | initial excitation followed by almost complete block of the activity | block of all phasic activity |
